Data published in article PMC11194565.
No constants are given. Whether binding was seen depends on the method and setting. For some of these results: In cells and extracts the contact can be indirect. Some binding calls cover weakened binding; strength is not graded here.

Protein sequences, listed by entry. Tags and fused reporters are not part of them. Lines headed by an entry give the natural chain unless they say otherwise; changes in a name come on top. Chains listed by the source or under a name are the forms on record and can include a tag or linker.
UniProt Q8N726: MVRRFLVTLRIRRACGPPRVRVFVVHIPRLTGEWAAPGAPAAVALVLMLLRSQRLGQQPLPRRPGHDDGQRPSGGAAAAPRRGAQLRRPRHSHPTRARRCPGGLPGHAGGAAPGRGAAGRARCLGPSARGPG
purified Flag-tagged point mutant ARF (substitution of Phe23 and Leu49 into Alanine; 2A) (Q8N726, form named): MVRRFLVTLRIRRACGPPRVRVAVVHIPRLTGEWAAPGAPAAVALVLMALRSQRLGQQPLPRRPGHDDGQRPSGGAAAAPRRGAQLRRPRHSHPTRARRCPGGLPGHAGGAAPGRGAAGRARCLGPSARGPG
UniProt Q9NRC8: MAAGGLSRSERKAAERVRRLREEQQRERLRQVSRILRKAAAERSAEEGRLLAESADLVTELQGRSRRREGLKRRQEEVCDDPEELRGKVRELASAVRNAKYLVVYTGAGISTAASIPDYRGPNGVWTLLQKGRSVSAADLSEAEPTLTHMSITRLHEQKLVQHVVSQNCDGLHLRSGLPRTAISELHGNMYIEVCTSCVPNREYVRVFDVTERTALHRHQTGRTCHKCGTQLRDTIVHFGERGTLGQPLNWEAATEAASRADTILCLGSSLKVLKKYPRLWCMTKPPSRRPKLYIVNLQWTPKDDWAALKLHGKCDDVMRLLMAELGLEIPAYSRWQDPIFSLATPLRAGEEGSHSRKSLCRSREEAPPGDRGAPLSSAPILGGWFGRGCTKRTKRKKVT
UniProt P06748: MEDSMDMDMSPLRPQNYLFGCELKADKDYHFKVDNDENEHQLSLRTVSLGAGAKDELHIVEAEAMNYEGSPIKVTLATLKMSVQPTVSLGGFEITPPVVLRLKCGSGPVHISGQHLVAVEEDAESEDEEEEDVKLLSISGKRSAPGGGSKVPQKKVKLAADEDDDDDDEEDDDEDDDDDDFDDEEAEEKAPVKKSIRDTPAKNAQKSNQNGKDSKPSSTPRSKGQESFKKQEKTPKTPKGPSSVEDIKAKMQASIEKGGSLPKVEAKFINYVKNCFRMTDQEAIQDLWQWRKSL

How the values were obtained:
[1] = molecular target: GST-tagged p14ARF (human) (UniProt Q8N726); assay: pull-down; GST-pull down of bacterial purified GST-tagged p14ARF and His-tagged SIRT7; both purified
V5-tagged p14ARF (human) = V5-tagged p14ARF (human) (UniProt Q8N726); assay: co-IP; stable scrambled and NPM KD H1299 cells transfected with V5-tagged p14ARF; IP with anti-V5 antibody, blot with anti-V5 and SIRT7 antibodies
[2] = molecular target: p14ARF (endogenous, H1299) (human (endogenous in H1299)) (UniProt Q8N726); assay: co-IP; endogenous proteins in scrambled and SIRT7 KD H1299 cells; IP with anti-p14ARF antibody, blot with anti-p14 and SIRT7 antibodies; nonimmune IgG as negative control
[3] = molecular target: Flag-tagged p14ARF (human) (UniProt Q8N726); assay: co-IP; 293T HEK cells transfected with YFP-tagged WT or HY mutant SIRT7 and Flag-tagged p14ARF; IP with anti-Flag antibody, blot with anti-Flag and anti-YFP; nonimmune IgG as negative control
[4] = molecular target: purified Flag-tagged SIRT7 (UniProt Q9NRC8); assay: co-IP; purified Flag-tagged WT or 2A point mutant ARF and Flag-tagged SIRT7; IP with anti-SIRT7 antibody, blot with anti-Flag antibody; both purified
[5] = molecular target: purified Flag-tagged point mutant ARF (substitution of Phe23 and Leu49 into Alanine; 2A) (human) (UniProt Q8N726); assay: co-IP; purified Flag-tagged WT or 2A point mutant ARF and Flag-tagged NPM; IP with anti-ARF antibody, blot with anti-Flag antibody; both purified

Substance: His-tagged SIRT7 (from UniProt Q9NRC8 1-400) (enzyme)
- binding [1]: binds

Substance: SIRT7 (endogenous, H1299) (from UniProt Q9NRC8 1-400) (enzyme)
- binding (V5-tagged p14ARF (human)): binds
- binding [2]: binds

Substance: YFP-tagged WT SIRT7 (from UniProt Q9NRC8 1-400) (enzyme)
- binding [3]: binds

Substance: purified Flag-tagged ARF (WT) (from UniProt Q8N726 1-132)
- binding [4]: binds

Substance: purified Flag-tagged NPM (from UniProt P06748 1-294)
- binding [5]: binds

Substance: purified Flag-tagged point mutant ARF (substitution of Phe23 and Leu49 into Alanine; 2A) (from UniProt Q8N726 1-132)
- binding [4]: binds
